Source: publication PMC13140326

Biological target: ZmSnRK2.10 (endogenous, immunoprecipitated from kernels) (maize (endogenous in B73 kernels))
Experiment: affinity purification with mass spectrometry; IP-MS: protein extract of 15-DAP B73 kernels incubated with anti-ZmSnRK2.10 antibody and protein A magnetic beads, 4°C, 4 h; IgG as negative control; washed with PBS with 1% Nonidet P-40

binding: binds
B1: GBSSI (Wx, granule-bound starch synthase), endogenous (enzyme, UniProt P04713 73-605)
chain: ASAGMNVVFVGAEMAPWSKTGGLGDVLGGLPPAMAANGHRVMVVSPRYDQYKDAWDTSVVSEIKMGDGYETVRFFHCYKRGVDRVFVDHPLFLERVWGKTEEKIYGPVAGTDYRDNQLRFSLLCQAALEAPRILSLNNNPYFSGPYGEDVVFVCNDWHTGPLSCYLKSNYQSHGIYRDAKTAFCIHNISYQGRFAFSDYPELNLPERFKSSFDFIDGYEKPVEGRKINWMKAGILEADRVLTVSPYYAEELISGIARGCELDNIMRLTGITGIVNGMDVSEWDPSRDKYIAVKYDVSTAVEAKALNKEALQAEVGLPVDRNIPLVAFIGRLEEQKGPDVMAAAIPQLMEMVEDVQIVLLGTGKKKFERMLMSAEEKFPGKVRAVVKFNAALAHHIMAGADVLAVTSRFEPCGLIQLQGMRYGTPCACASTGGLVDTIIEGKTGFHMGRLSVDCNVVEPADVKKVATTLQRAIKVVGTPAYEEMVRNCMIQDLSWKGPAKNWENVLLSLGVAGGEPGVEGEEIAPLAKENVAAP

These are yes or no findings as the source states them, for the method shown. In cells and extracts the contact can be indirect. These calls come from enrichment with a bait or labelling near it, and not all partners need be listed.
